From publication PMC10350922, “Allosteric Inhibitors of Macrophage Migration Inhibitory Factor (MIF) Interfere with Apoptosis-Inducing Factor (AIF) Co-Localization to Prevent Parthanatos” (Journal of Medicinal Chemistry, 2023)
No constants are given. Whether binding was seen depends on the method and setting. Some results given as binding are weak or reduced against the parent protein; the word gives no strength. Sequences can lack the tags named with a protein.

Protein sequences, listed by entry. Tags and fused reporters are not part of them. Residues count along the entry.
UniProt O95831, residues 121-613: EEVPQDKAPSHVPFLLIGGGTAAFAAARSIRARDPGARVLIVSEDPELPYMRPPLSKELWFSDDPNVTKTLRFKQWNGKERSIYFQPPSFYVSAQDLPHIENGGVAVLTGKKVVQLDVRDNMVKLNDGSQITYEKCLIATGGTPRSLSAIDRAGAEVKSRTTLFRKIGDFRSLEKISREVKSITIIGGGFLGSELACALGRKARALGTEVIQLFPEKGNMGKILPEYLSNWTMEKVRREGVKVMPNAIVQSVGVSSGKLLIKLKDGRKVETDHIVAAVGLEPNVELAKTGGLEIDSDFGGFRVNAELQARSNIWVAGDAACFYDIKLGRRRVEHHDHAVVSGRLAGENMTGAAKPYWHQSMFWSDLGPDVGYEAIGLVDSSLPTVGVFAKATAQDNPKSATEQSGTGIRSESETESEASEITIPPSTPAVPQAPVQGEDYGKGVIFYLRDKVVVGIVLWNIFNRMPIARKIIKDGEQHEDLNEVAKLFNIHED

Biological target: T1, Human recombinant untagged macrophage migration inhibitory factor (MIF) (human) (UniProt P14174)
T1 sequence: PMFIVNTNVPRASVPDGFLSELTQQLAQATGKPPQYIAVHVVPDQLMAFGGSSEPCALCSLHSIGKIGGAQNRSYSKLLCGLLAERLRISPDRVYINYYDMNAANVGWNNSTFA
Experiment: ELISA; untagged MIF (250 nM) coated on a high-binding 96-well plate overnight at 4 °C in binding buffer (Tris-HCl 100 mM, 5 mM MgCl2, 150 mM NaCl, pH 8.5); blocked with 2% BSA; pre-incubated with a concentration series of compound 6y for 30 min at rt; His-tagged AIF added at 4 μM for 2 h; detected with anti-poly-Histidine-peroxidase antibody; both purified

For “his-tagged recombinant apoptosis-inducing factor (AIF) (from UniProt O95831 121-613)”, the binding was “binds”.
